Data on 1 molecule can be found in PMC6987383.

These are yes or no findings as the source states them, for the method shown. Binding seen in cells or lysates may run through a third protein. Some entries that bind do so weakly or less than the wild type.

In this test the target is OCT4 (mouse embryo) (mouse (endogenous in E7.0 embryos)), P20263. The experiment in a line: proximity ligation; Duolink In Situ Red kit on sections of E7 mouse embryos; primary antibodies against OCT4 and β-CATENIN at 4°C overnight. The following applies: remark: other sources report otherwise.

B1: β-CATENIN (mouse embryo), Q02248 1-781 (protein)
chain: MATQADLMELDMAMEPDRKAAVSHWQQQSYLDSGIHSGATTTAPSLSGKGNPEEEDVDTSQVLYEWEQGFSQSFTQEQVADIDGQYAMTRAQRVRAAMFPETLDEGMQIPSTQFDAAHPTNVQRLAEPSQMLKHAVVNLINYQDDAELATRAIPELTKLLNDEDQVVVNKAAVMVHQLSKKEASRHAIMRSPQMVSAIVRTMQNTNDVETARCTAGTLHNLSHHREGLLAIFKSGGIPALVKMLGSPVDSVLFYAITTLHNLLLHQEGAKMAVRLAGGLQKMVALLNKTNVKFLAITTDCLQILAYGNQESKLIILASGGPQALVNIMRTYTYEKLLWTTSRVLKVLSVCSSNKPAIVEAGGMQALGLHLTDPSQRLVQNCLWTLRNLSDAATKQEGMEGLLGTLVQLLGSDDINVVTCAAGILSNLTCNNYKNKMMVCQVGGIEALVRTVLRAGDREDITEPAICALRHLTSRHQEAEMAQNAVRLHYGLPVVVKLLHPPSHWPLIKATVGLIRNLALCPANHAPLREQGAIPRLVQLLVRAHQDTQRRTSMGGTQQQFVEGVRMEEIVEGCTGALHILARDVHNRIVIRGLNTIPLFVQLLYSPIENIQRVAAGVLCELAQDKEAAEAIEAEGATAPLTELLHSRNEGVATYAAAVLFRMSEDKPQDYKKRLSVELTSSLFRTEPMAWNETADLGLDIGAQGEALGYRQDDPSYRSFHSGGYGQDALGMDPMMEHEMGGHHPGADYPVDGLPDLGHAQDLMDGLPPGDSNQLAWFDTDL
In the case of B1, the binding entry was “binds”.
